From PubChem BioAssay AID256 (DTP/NCI, 2004)
The list shows only some results of the screen, not a fair sample: it gathers tests that were run many times, whatever their T/C, doses with no T/C, and many T/C values between a quarter and a half above the control. Other doses and runs of a compound stand elsewhere. T/C is the treated group as % of the vehicle group. Some doses have a count of surviving animals in place of a T/C: the source holds a T/C of zero for them, seemingly a mark for toxic or unscored doses. Some doses without a T/C left all or most animals alive at the check, yet need not have been tolerated: the source hardly ever lists a survival T/C far under the control, and the zero likely stands for such cases as well. Counts of survivors are from the toxicity check (mostly the fifth day) where no day follows; animals may have died later. Schedules are NCI's codes, taken here to give the interval after Q, in days (D) or hours (H), and the number of doses after X. Some doses were run more than once; the values are given in rising order. For survival time, the PubChem record calls one and a half times the control and up active, and a quarter to a half above the control has no call in these data; cut-offs in other NCI protocols can differ. Some molecules as drawn cover several salts, stereoisomers or complexes of the source; a dose is that of the sample tested.

Test system: CD2F1 mice, L1210 leukemia ip, survival T/C
Assay: NCI In Vivo Anticancer Drug Screen. Data for tumor model L1210 Leukemia (intraperitoneal) in CD2F1 (CDF1) mice
Details: higher T/C = longer survival
Outline: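 Implant tumor; dose compound or vehicle; measure endpoint in both groups; report treated divided by control.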

[1] = T/C endpoint: mean survival time, dose: 400.0 mg/kg/injection, schedule: Q01DX009 (ip), vehicle: saline with Tween-80
[2] = T/C endpoint: mean survival time, dose: 400.0 mg/kg/injection, schedule: Q04DX003 (ip), vehicle: saline with Tween-80
[3] = T/C endpoint: mean survival time, dose: 25.0 mg/kg/injection, schedule: Q01DX009 (ip), vehicle: saline with Tween-80
[4] = T/C endpoint: mean survival time, dose: 200.0 mg/kg/injection, schedule: Q04DX003 (ip), vehicle: saline with Tween-80
[5] = T/C endpoint: mean survival time, dose: 200.0 mg/kg/injection, schedule: Q01DX009 (ip), vehicle: saline

[CH3][Sn]1([CH3])[O]C2C(CO)OC(n3ccc4c(N)ncnc43)C2[O]1 (configuration not stated)
survivor count (T/C endpoint: mean survival time, dose: 6.25 mg/kg/injection, schedule: Q01DX005 (ip), vehicle: other): 6 of 6 | survivor count (T/C endpoint: mean survival time, dose: 12.5 mg/kg/injection, schedule: Q01DX005 (ip), vehicle: other): 0 of 6 and 4 of 6 | survivor count (T/C endpoint: mean survival time, dose: 25.0 mg/kg/injection, schedule: Q01DX005 (ip), vehicle: other): 0 of 6 | survivor count (T/C endpoint: mean survival time, dose: 50.0 mg/kg/injection, schedule: Q01DX005 (ip), vehicle: other): 0 of 6 | survivor count (T/C endpoint: mean survival time, dose: 100.0 mg/kg/injection, schedule: Q01DX005 (ip), vehicle: other): 0 of 6 | survivor count (T/C endpoint: mean survival time, dose: 200.0 mg/kg/injection, schedule: Q01DX005 (ip), vehicle: other): 0 of 6

O=C(NS(=O)(=O)c1ccc(Cl)cc1)OCCCl
survivor count [1]: 3 of 6

CN(Cc1ccc(Cl)cc1)N=Nc1ccc(C(=O)O)cc1
survivor count (T/C endpoint: mean survival time, dose: 400.0 mg/kg/injection, schedule: Q01DX009 (ip), vehicle: other): 1 of 3

CC(=O)OCCCC(C)Nc1ccnc2cc(Cl)ccc12 (configuration not stated)
survivor count [2]: 2 of 6

COC(=O)C1(N)CCCC1
T/C (T/C endpoint: mean survival time, dose: 50.0 mg/kg/injection, schedule: Q01DX009 (ip), vehicle: saline): 125 % of control | T/C (T/C endpoint: mean survival time, dose: 100.0 mg/kg/injection, schedule: Q01DX009 (ip), vehicle: saline): 131 % of control | T/C (T/C endpoint: mean survival time, dose: 200.0 mg/kg/injection, schedule: Q04DX003 (ip), vehicle: saline): 128 % of control | T/C [2]: 138 % of control | T/C (T/C endpoint: mean survival time, dose: 400.0 mg/kg/injection, schedule: Q04DX003 (ip), vehicle: saline): 136 % of control

O=C1C=CN(C2OC(CO)C(O)C2O)C(=O)C1 (configuration not stated)
T/C [3]: 131 % of control | T/C (T/C endpoint: mean survival time, dose: 50.0 mg/kg/injection, schedule: Q01DX009 (ip), vehicle: saline with Tween-80): 142 % of control | T/C (T/C endpoint: mean survival time, dose: 75.0 mg/kg/injection, schedule: Q01DX005 (iv), vehicle: saline): 127 % of control | survivor count (T/C endpoint: mean survival time, dose: 600.0 mg/kg/injection, schedule: Q01DX005 (iv), vehicle: saline): 6 of 6 | T/C (T/C endpoint: median survival time, dose: 12.5 mg/kg/injection, schedule: Q01DX009 (ip), vehicle: saline): 142 % of control | T/C (T/C endpoint: median survival time, dose: 16.0 mg/kg/injection, schedule: Q01DX009 (ip), vehicle: saline): 143, 153, 154, 160 % of control | T/C (T/C endpoint: median survival time, dose: 22.0 mg/kg/injection, schedule: Q01DX009 (ip), vehicle: saline, evaluated on day 45): 145 and 155 % of control | T/C (T/C endpoint: median survival time, dose: 22.0 mg/kg/injection, schedule: Q01DX009 (ip), vehicle: saline, evaluated on day 60): 157, 158, 160, 163 % of control | T/C (T/C endpoint: median survival time, dose: 25.0 mg/kg/injection, schedule: Q01DX009 (ip), vehicle: saline): 141 % of control | T/C (T/C endpoint: median survival time, dose: 33.0 mg/kg/injection, schedule: Q01DX009 (ip), vehicle: saline, evaluated on day 45): 157 and 163 % of control | T/C (T/C endpoint: median survival time, dose: 33.0 mg/kg/injection, schedule: Q01DX009 (ip), vehicle: saline, evaluated on day 60): 156, 161, 169, 180 % of control | T/C (T/C endpoint: median survival time, dose: 50.0 mg/kg/injection, schedule: Q01DX009 (ip), vehicle: saline, evaluated on day 5): 109 % of control | T/C (T/C endpoint: median survival time, dose: 50.0 mg/kg/injection, schedule: Q01DX009 (ip), vehicle: saline, evaluated on day 60): 161, 167, 169, 174, 183 % of control | T/C (T/C endpoint: median survival time, dose: 200.0 mg/kg/injection, schedule: Q01DX009 (ip), vehicle: saline): 132 % of control | T/C (T/C endpoint: median survival time, dose: 400.0 mg/kg/injection, schedule: Q01DX009 (ip), vehicle: saline): 132 % of control

C/C=C1/C[C@@H](C)[C@@](C)(O)C(=O)OCC2=CC[N+]3([O-])CC[C@@H](OC1=O)[C@@H]23 (some centres not stated)
survivor count (T/C endpoint: mean survival time, dose: 400.0 mg/kg/injection, schedule: Q01DX001 (ip), vehicle: saline with Tween-80): 3 of 6

Cc1c(CNc2ccc(C(=O)NC(CC(=O)O)C(=O)O)cc2)ccc2nc(N)nc(N)c12 (configuration not stated)
survivor count (T/C endpoint: mean survival time, dose: 0.78 mg/kg/injection, schedule: Q01DX009 (ip), vehicle: saline): 4 of 6 | survivor count (T/C endpoint: mean survival time, dose: 1.56 mg/kg/injection, schedule: Q01DX009 (ip), vehicle: saline with Tween-80): 5 of 6 | survivor count (T/C endpoint: mean survival time, dose: 3.12 mg/kg/injection, schedule: Q01DX009 (ip), vehicle: saline with Tween-80): 4 of 6 | survivor count (T/C endpoint: mean survival time, dose: 3.12 mg/kg/injection, schedule: Q01DX009 (ip), vehicle: saline): 6 of 6 | survivor count (T/C endpoint: mean survival time, dose: 6.25 mg/kg/injection, schedule: Q01DX009 (ip), vehicle: saline with Tween-80): 3 of 6 | T/C (T/C endpoint: mean survival time, dose: 12.5 mg/kg/injection, schedule: Q01DX001 (ip), vehicle: saline): 135 % of control | survivor count (T/C endpoint: mean survival time, dose: 12.5 mg/kg/injection, schedule: Q01DX009 (ip), vehicle: saline with Tween-80): 2 of 6 | survivor count (T/C endpoint: mean survival time, dose: 12.5 mg/kg/injection, schedule: Q01DX009 (ip), vehicle: saline): 6 of 6 | survivor count [3]: 2 of 6 | survivor count (T/C endpoint: mean survival time, dose: 25.0 mg/kg/injection, schedule: Q01DX009 (ip), vehicle: saline): 5 of 6 | survivor count (T/C endpoint: mean survival time, dose: 100.0 mg/kg/injection, schedule: Q01DX001 (ip), vehicle: saline): 3 of 6

CC(=O)OCC1(C)NC(=O)c2ccccc2O1 (configuration not stated)
survivor count [1]: 5 of 6

c1ccc(OCC2CO2)c(OCC2CO2)c1 (configuration not stated)
T/C (T/C endpoint: median survival time, dose: 50.0 mg/kg/injection, schedule: Q01DX009 (ip), vehicle: saline with Tween-80): 127 % of control | T/C (T/C endpoint: median survival time, dose: 100.0 mg/kg/injection, schedule: Q01DX009 (ip), vehicle: saline with Tween-80, evaluated on day 20): 127 % of control | T/C (T/C endpoint: median survival time, dose: 100.0 mg/kg/injection, schedule: Q01DX009 (ip), vehicle: saline with Tween-80, evaluated on day 30): 128 and 134 % of control | T/C (T/C endpoint: median survival time, dose: 200.0 mg/kg/injection, schedule: Q01DX009 (ip), vehicle: saline with Tween-80): 143 % of control | survivor count (T/C endpoint: median survival time, dose: 400.0 mg/kg/injection, schedule: Q01DX009 (ip), vehicle: saline with Tween-80): 2 of 6 and 3 of 6

O=S(=O)(NC(=S)Nc1ccc(Cl)cc1)c1ccccc1
survivor count [1]: 0 of 6

CC1=C/C(=C/c2ccccc2)CC(C)(C)C1 (tested in a mixture with another compound)
survivor count [4]: 6 of 6 | survivor count [2]: 5 of 6

C[As](C)SCC1OC(n2ccc(=O)[nH]c2=O)CC1O (configuration not stated)
survivor count (T/C endpoint: median survival time, dose: 200.0 mg/kg/injection, schedule: Q01DX005 (ip), vehicle: distilled water + Tween-80): 0 of 6

CC(=O)C(C(C)=O)c1ccc([N+](=O)[O-])cc1[N+](=O)[O-].CC(=O)C(C(C)=O)c1ccc([N+](=O)[O-])cc1[N+](=O)[O-].[Cu]
survivor count (T/C endpoint: median survival time, dose: 200.0 mg/kg/injection, schedule: Q04DX002 (ip), vehicle: saline with Tween-80): 3 of 3

Cc1ncc(CO)c(C2NOCc3nscc32)c1O (configuration not stated)
survivor count (T/C endpoint: mean survival time, dose: 42.0 mg/kg/injection, schedule: Q01DX009 (ip), vehicle: Klucel (hydroxypropylcellulose) (HPC)): 3 of 6

NNC(=S)S
survivor count (T/C endpoint: mean survival time, dose: 20.0 mg/kg/injection, schedule: Q01DX001 (ip), vehicle: saline): 3 of 6 | survivor count (T/C endpoint: mean survival time, dose: 40.0 mg/kg/injection, schedule: Q01DX001 (ip), vehicle: saline): 0 of 6 | survivor count (T/C endpoint: mean survival time, dose: 80.0 mg/kg/injection, schedule: Q01DX001 (ip), vehicle: saline): 0 of 6

Cc1cc(C)cc(C(C)C)c1
survivor count [1]: 4 of 6

CC1(C)COCN1COCCOCN1COCC1(C)C
survivor count [5]: 2 of 10 and 3 of 6

NNc1ccccc1F
survivor count (T/C endpoint: mean survival time, dose: 200.0 mg/kg/injection, schedule: Q04DX003 (ip), vehicle: saline sonified): 0 of 6 | survivor count (T/C endpoint: mean survival time, dose: 400.0 mg/kg/injection, schedule: Q04DX003 (ip), vehicle: saline sonified): 0 of 6

O=C(NC(Cc1ccc(I)cc1)C(=O)O)c1cccc(Br)c1 (configuration not stated)
survivor count (T/C endpoint: median survival time, dose: 400.0 mg/kg/injection, schedule: Q01DX009 (ip), vehicle: Klucel (hydroxypropylcellulose) (HPC)): 2 of 6

ClC1=C(Cl)C2(Cl)C=CC1(Cl)C2(Cl)Cl
survivor count (T/C endpoint: mean survival time, dose: 100.0 mg/kg/injection, schedule: Q01DX009 (ip), vehicle: saline with Tween-80): 6 of 6 | survivor count [4]: 2 of 6 | survivor count [2]: 1 of 6

O/N=C1\CCCCC\C1=N/O.O/N=C1\CCCCC\C1=N/O.[Pt]
survivor count (T/C endpoint: mean survival time, dose: 100.0 mg/kg/injection, schedule: Q04DX003 (ip), vehicle: dextrose): 3 of 6 | survivor count (T/C endpoint: mean survival time, dose: 400.0 mg/kg/injection, schedule: Q04DX003 (ip), vehicle: dextrose): 5 of 6

O=[N+]([O-])c1cccc(S(=O)(=O)O)c1.[Fe]
survivor count [5]: 3 of 6
